Record: PubChem BioAssay AID1259254 (NCATS, 2017)
Assay: 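Genome-wide screen for genes that prevent DNA re-replication in cancer cells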 (primary screen). Cell system: human HCT116 colorectal cancer cells. Reagent: single siRNA against human genes. Time to read-out: 3 days. Detection: 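Imaged Hoechst DNA stain sorts each cell into a cycle phase by DNA amount; per plate, G2 fraction set to 0% for non-targeting and 100% for GMNN siRNA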. Scale: G2 robust z-score and G2 cells, % of GMNN control: higher = more G2 cells, more excess DNA replication. Rule for the call: 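An siRNA counts as active if its G2 robust z-score lies at least 5 MADs above the screen median; here such calls match roughly 38% of GMNN control or more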.
In all, the deposit lists about 59,000 reagents; below is a part drawn at random. In the full data, about 1,550 (2.6%) were called active. 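G2 share is only a proxy for re-replication; each gene was hit by three separate siRNAs, and active genes were retested.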 The numbers tell different reagents against one gene apart. Not all columns of the deposit are shown. The record does not give: the amount of reagent.

| gene | reagent no. | G2 robust z-score | G2 cells, % of GMNN control | outcome |
| --- | --- | --- | --- | --- |
| MAGEB17 | 1 | 1.48 | 13.4 | inactive |
| MAGEB17 | 2 | 3.28 | 26 | inactive |
| MAGEB17 | 3 | 0.904 | 9.33 | inactive |
| RS1 | 1 | -0.0876 | 2.35 | inactive |
| RS1 | 2 | -1.16 | -5.21 | inactive |
| RS1 | 3 | 0.975 | 9.83 | inactive |
| PARP3 | 1 | 1.21 | 11.5 | inactive |
| PARP3 | 2 | 1.22 | 11.5 | inactive |
| PARP3 | 3 | -1.56 | -8.02 | inactive |
| PCYT2 | 1 | 1.06 | 10.4 | inactive |
| PCYT2 | 2 | 0.0328 | 3.2 | inactive |
| PCYT2 | 3 | 0.0117 | 3.05 | inactive |
| TAS2R39 | 1 | -0.632 | -1.48 | inactive |
| TAS2R39 | 2 | 1.02 | 10.1 | inactive |
| TAS2R39 | 3 | -0.288 | 0.941 | inactive |
| CLCC1 | 1 | 4.99 | 38.1 | inactive |
| CLCC1 | 2 | 0.0961 | 3.64 | inactive |
| CLCC1 | 3 | -0.702 | -1.97 | inactive |
| CRYGN | 1 | -0.239 | 1.28 | inactive |
| CRYGN | 2 | 0.587 | 7.1 | inactive |
| CRYGN | 3 | -0.853 | -3.03 | inactive |
| TMEM68 | 1 | -0.76 | -2.38 | inactive |
| TMEM68 | 2 | 0.671 | 7.68 | inactive |
| TMEM68 | 3 | 0.53 | 6.69 | inactive |
| CTSC | 1 | 3.58 | 28.2 | inactive |
| CTSC | 2 | -0.806 | -2.7 | inactive |
| CTSC | 3 | -0.701 | -1.96 | inactive |
| FAM237A | 1 | -0.898 | -3.35 | inactive |
| FAM237A | 2 | -0.0665 | 2.5 | inactive |
| FAM237A | 3 | 0.599 | 7.18 | inactive |
| MSLNL | 1 | -0.0172 | 2.85 | inactive |
| MSLNL | 2 | 0.905 | 9.33 | inactive |
| MSLNL | 3 | -1.09 | -4.73 | inactive |
| CD27 | 1 | 1.86 | 16.1 | inactive |
| CD27 | 2 | -1.01 | -4.11 | inactive |
| CD27 | 3 | 1.01 | 10.1 | inactive |
| GTSF1 | 1 | -0.842 | -2.96 | inactive |
| GTSF1 | 2 | -0.856 | -3.06 | inactive |
| GTSF1 | 3 | 3.73 | 29.2 | inactive |
| SPMIP10 | 1 | -0.244 | 1.25 | inactive |
| SPMIP10 | 2 | -1.02 | -4.19 | inactive |
| SPMIP10 | 3 | -1.15 | -5.15 | inactive |
| TTC14 | 1 | 1.54 | 13.8 | inactive |
| TTC14 | 2 | -0.0467 | 2.64 | inactive |
| TTC14 | 3 | 2.51 | 20.6 | inactive |
| ZNF189 | 1 | 0.0333 | 3.2 | inactive |
| ZNF189 | 2 | 0.419 | 5.91 | inactive |
| ZNF189 | 3 | -0.142 | 1.97 | inactive |
| DHRS1 | 1 | -1.11 | -4.83 | inactive |
| DHRS1 | 2 | 1.37 | 12.6 | inactive |
| DHRS1 | 3 | 0.111 | 3.75 | inactive |
| GRSF1 | 1 | 2.55 | 20.9 | inactive |
| GRSF1 | 2 | 2.65 | 21.6 | inactive |
| GRSF1 | 3 | 0.585 | 7.08 | inactive |
| BNIP5 | 1 | -0.785 | -2.55 | inactive |
| BNIP5 | 2 | 1.32 | 12.3 | inactive |
| BNIP5 | 3 | -1.1 | -4.79 | inactive |
| FHIP2A | 1 | -0.585 | -1.15 | inactive |
| FHIP2A | 2 | -0.295 | 0.892 | inactive |
| FHIP2A | 3 | -0.589 | -1.18 | inactive |
| RPN2 | 1 | 5.82 | 43.9 | active |
| RPN2 | 2 | -0.957 | -3.77 | inactive |
| RPN2 | 3 | -0.588 | -1.17 | inactive |
| GPBP1 | 1 | 0.0451 | 3.28 | inactive |
| GPBP1 | 2 | 0.347 | 5.41 | inactive |
| GPBP1 | 3 | 0.0332 | 3.2 | inactive |
| CHAD | 1 | 1.74 | 15.2 | inactive |
| CHAD | 2 | -0.443 | -0.146 | inactive |
| CHAD | 3 | -1.05 | -4.4 | inactive |

Hits, among the entries above:
| gene | reagent no. | G2 robust z-score | G2 cells, % of GMNN control | outcome |
| --- | --- | --- | --- | --- |
| RPN2 | 1 | 5.82 | 43.9 | active |
